Reference: US20220193310A1, “DUAL AGENT NANOPARTICLE COMPOSITION FOR COATING MEDICAL DEVICES” (THE CLEVELAND CLINIC FOUNDATION, priority 2020, published 2022)
The name of at least one read-out is uncertain.

Tested on: primary human vascular smooth muscle cells
Test: Inhibition of cell proliferation, CyQUANT NF Cell Proliferation Assay
Assay type: cell-based
Details: encapsulated in nanoparticles vs solution; six-day cell culture

| Compound | IC50 of encapsulated drug lower than the solution [times] |
| --- | --- |
| CC(=O)O[C@H]1C(=O)[C@@]2(C)[C@H]([C@H](OC(=O)c3ccccc3)[C@]3(O)C[C@H](OC(=O)[C@H](O)[C@@H](NC(=O)c4ccccc4)c4ccccc4)C(C)=C1C3(C)C)[C@]1(OC(C)=O)CO[C@@H]1C[C@@H]2O [PTX, Paclitaxel] | ~1.34 |
| CO[C@H]1C[C@@H]2CC[C@@H](C)[C@@](O)(O2)C(=O)C(=O)N2CCCC[C@H]2C(=O)O[C@H]([C@H](C)C[C@@H]2CC[C@@H](O)[C@H](OC)C2)CC(=O)[C@H](C)/C=C(\C)[C@@H](O)[C@@H](OC)C(=O)[C@H](C)C[C@H](C)/C=C/C=C/C=C/1C [SRL, Sirolimus] | ~3 |
